Measurements published in the supplement of paper PMC4604168 (melanoma cell lines).
The list shows a part of the results. Repeats are few or missing, and single values can be far off.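 Imaging used 1,536-well plates; nuclei positive for cleaved PARP by antibody were divided by total DNA-stained nuclei to yield the apoptosis fraction. Doses for screening kept most cells viable, and cell lines differ markedly in resting and induced cleaved-PARP levels.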

What follows are molecules tested on IST-MEL1 (assay: cleaved PARP positive nuclei fraction relative to DMSO control; melanoma cells; higher = more apoptosis). Conditions: library dose: low library concentration; 72 h.

First: NC1(c2ccc(-c3nc4ccn5c(=O)[nH]nc5c4cc3-c3ccccc3)cc2)CCC1 + CCCS(=O)(=O)Nc1ccc(F)c(C(=O)c2c[nH]c3ncc(Cl)cc23)c1F [PLX4720] (first compound 0.4 µM, partner dose 0.08 µM)
Second: C[C@]1(O)C[C@@H](c2nc(-c3ccc4ccc(-c5ccccc5)nc4c3)c3c(N)nccn32)C1 + CC(=O)O[C@@]12CO[C@@H]1C[C@H](O)[C@@]1(C)C(=O)[C@H](O)C3=C(C)[C@@H](OC(=O)[C@H](O)[C@@H](NC(=O)OC(C)(C)C)c4ccccc4)C[C@@](O)([C@@H](OC(=O)c4ccccc4)[C@H]21)C3(C)C [Docetaxel] (first compound 0.4 µM, partner dose 0.0001 µM)
The “cleaved PARP positive nuclei fraction” value of the first is lower: 34.6% for the first, 209% for the second.

Going from `NC(=O)c1ccc(N(C(N)=O)c2c(F)cccc2F)nc1-c1ccc(F)cc1F` + C#Cc1cccc(Nc2ncnc3cc(OCCOC)c(OCCOC)cc23)c1 [erlotinib] (first compound 0.4 µM, partner dose 0.8 µM) to `CS(=O)(=O)c1ccc(C(=O)Nc2ccc(Cl)c(-c3ccccn3)c2)c(Cl)c1` [vismodegib] + CCCCCCCCc1ccc(CCC(N)(CO)CO)cc1 [fingolimod] (first compound 1 µM, partner dose 2 µM), the “cleaved PARP positive nuclei fraction” value rises from 81.1% to 198%.

First: C[C@@H](N)c1ccc(C(=O)Nc2ccnc3[nH]ccc23)cc1 + Cn1sc(=O)n(Cc2ccccc2)c1=O [TDZD-8] (first compound 0.4 µM, partner dose 0.4 µM)
Second: C[C@]1(O)C[C@@H](c2nc(-c3ccc4ccc(-c5ccccc5)nc4c3)c3c(N)nccn32)C1 + OCc1c[nH]c2ccccc12 [Indole-3-carbinol] (first compound 0.4 µM, partner dose 0.8 µM)
The “cleaved PARP positive nuclei fraction” value of the first is higher: 64.5% for the first, 59.8% for the second.

Compared with `Cn1cnc2c(F)c(Nc3ccc(Br)cc3Cl)c(C(=O)NOCCO)cc21` [selumetinib] + C#Cc1cccc(Nc2ncnc3cc(OCCOC)c(OCCOC)cc23)c1 [erlotinib] (first compound 0.015 µM, partner dose 0.8 µM), `CN(c1ncccc1CNc1nc(Nc2ccc3c(c2)CC(=O)N3)ncc1C(F)(F)F)S(C)(=O)=O` + C[C@]1(c2nc3c(C(N)=O)cccc3[nH]2)CCCN1 [Veliparib] (first compound 0.08 µM, partner dose 1.4 µM) is lower in “cleaved PARP positive nuclei fraction” value: 68.1% for the first, 33.1% for the second.

Compared with `CC1(C)CCC(c2ccc(Cl)cc2)=C(CN2CCN(c3ccc(C(=O)NS(=O)(=O)c4ccc(N[C@H](CCN5CCOCC5)CSc5ccccc5)c(S(=O)(=O)C(F)(F)F)c4)cc3)CC2)C1` + CS(=O)(=O)CCNCc1ccc(-c2ccc3ncnc(Nc4ccc(OCc5cccc(F)c5)c(Cl)c4)c3c2)o1 [lapatinib] (first compound 0.4 µM, partner dose 0.8 µM), `C[C@]1(O)C[C@@H](c2nc(-c3ccc4ccc(-c5ccccc5)nc4c3)c3c(N)nccn32)C1` + CCCS(=O)(=O)Nc1ccc(F)c(C(=O)c2c[nH]c3ncc(Cl)cc23)c1F [PLX4720] (first compound 0.4 µM, partner dose 0.08 µM) is lower in “cleaved PARP positive nuclei fraction” value: 148% for the first, 22.7% for the second.

For `CC1(C)CCC(c2ccc(Cl)cc2)=C(CN2CCN(c3ccc(C(=O)NS(=O)(=O)c4ccc(N[C@H](CCN5CCOCC5)CSc5ccccc5)c(S(=O)(=O)C(F)(F)F)c4)cc3)CC2)C1` + O=C(O)[C@@H]1[O][Sb](=[O])([O][Sb]2(=[O])[O][C@H]([C@H](O)CO)[C@H](O)[C@H](C(=O)O)[O]2)[O][C@H]([C@H](O)CO)[C@@H]1O [stibogluconate] (first compound 0.4 µM, partner dose 2 µM), the “cleaved PARP positive nuclei fraction” value was 83.5%.
For `CC1(C)CCC(c2ccc(Cl)cc2)=C(CN2CCN(c3ccc(C(=O)NS(=O)(=O)c4ccc(N[C@H](CCN5CCOCC5)CSc5ccccc5)c(S(=O)(=O)C(F)(F)F)c4)cc3)CC2)C1` + Nc1ccn([C@@H]2O[C@H](CO)[C@@H](O)C2(F)F)c(=O)n1 [gemcitabine] (first compound 0.4 µM, partner dose 0.0004 µM), the “cleaved PARP positive nuclei fraction” value was 107%.
`CC1(C)CCC(c2ccc(Cl)cc2)=C(CN2CCN(c3ccc(C(=O)NS(=O)(=O)c4ccc(N[C@H](CCN5CCOCC5)CSc5ccccc5)c(S(=O)(=O)C(F)(F)F)c4)cc3)CC2)C1` + Cn1sc(=O)n(Cc2ccccc2)c1=O [TDZD-8] (first compound 0.4 µM, partner dose 0.4 µM) was tested, and the “cleaved PARP positive nuclei fraction” value was 95.5%.
